These are yes or no findings as the source states them, for the method shown. Binding seen in cells or lysates may run through a third protein. Some entries that bind do so weakly or less than the wild type. Sequences can lack the tags named with a protein.
Target: T1, FLAG-FOXP2 (197-408) (human) (UniProt O15409)
T1 sequence: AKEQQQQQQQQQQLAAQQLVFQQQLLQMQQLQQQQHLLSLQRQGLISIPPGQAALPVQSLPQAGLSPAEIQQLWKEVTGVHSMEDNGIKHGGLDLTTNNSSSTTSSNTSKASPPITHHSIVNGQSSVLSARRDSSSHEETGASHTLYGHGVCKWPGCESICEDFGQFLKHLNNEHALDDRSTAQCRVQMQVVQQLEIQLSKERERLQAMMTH
Assay: co-IP; anti-FLAG affinity gel in whole cell extracts of HEK293T cells transfected with pHis-FOXP2 and FLAG-FOXA2 fragments, or pCMV-FOXA2 and FLAG-FOXP2 fragments; blot with anti-FOXP2, anti-FOXA2 or anti-FLAG

B1: FOXA2 (pCMV-FOXA2) (protein, UniProt Q9Y261-2 1-463)
chain: MHSASSMLGAVKMEGHEPSDWSSYYAEPEGYSSVSNMNAGLGMNGMNTYMSMSAAAMGSGSGNMSAGSMNMSSYVGAGMSPSLAGMSPGAGAMAGMGGSAGAAGVAGMGPHLSPSLSPLGGQAAGAMGGLAPYANMNSMSPMYGQAGLSRARDPKTYRRSYTHAKPPYSYISLITMAIQQSPNKMLTLSEIYQWIMDLFPFYRQNQQRWQNSIRHSLSFNDCFLKVPRSPDKPGKGSFWTLHPDSGNMFENGCYLRRQKRFKCEKQLALKEAAGAAGSGKKAAAGAQASQAQLGEAAGPASETPAGTESPHSSASPCQEHKRGGLGELKGTPAAALSPPEPAPSPGQQQQAAAHLLGPPHHPGLPPEAHLKPEHHYAFNHPFSINNLMSSEQQHHHSHHHHQPHKMDLKAYEQVMHYPGYGSPMPGSLAMGPVTNKTGLDASPLAADTSYYQGVYSRPIMNSS
For B1, the binding was “binds”.

Reference: publication PMC7947682
